Values from PubChem BioAssay AID1259286 (Sanger Institute, 2017)
This is an unselected part of 794 reagents tested. In the full data, 17 (2.1%) were called active. 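Calls use knock-down alone only; synergy above 0.15 marked separately; viability seems capped at control level; exposure time not given.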 A number with no mark means an inactive call. Not all columns of the deposit are shown. Reagent sequences are not shown. Not given: the amount of reagent, the time to read-out.

Test: 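Kinase knock-downs that reduce colorectal cancer cell viability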 (primary screen)
Cells: NCI-H630 human colorectal cancer cells
Reagent: siRNA pool against human genes
Treatment: anchor drugs BYL719 at 1 µM, cetuximab at 5 µg/ml or trametinib at 10 nM, or DMSO vehicle alone; exposure time not given
Read-out: 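Replicate-averaged viability as a fraction of non-targeting control, knock-down-alone robust z-score, and per-drug synergy scores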
Scale: viability z-score, knock-down alone: higher = more viable cells, weaker knock-down effect; viability vs control, knock-down alone: higher = more viable cells
Units: viability vs control, knock-down alone in fraction of control
Hit rule: 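Essential call: robust z-score of viability with siRNA alone lower than -3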
Calls: active = essential when knocked down alone; inactive = not essential alone

GRK3 (G protein-coupled receptor kinase 3) gave viability z-score, knock-down alone 0.464; viability vs control, knock-down alone 1.
For TTBK2 (tau tubulin kinase 2) the deposit lists viability z-score, knock-down alone 0.464; viability vs control, knock-down alone 1.
With knock-down of TGFBR3 (transforming growth factor beta receptor 3), the screen gave viability z-score, knock-down alone 0.464; viability vs control, knock-down alone 1.
Depletion of PRKAG2 (protein kinase AMP-activated non-catalytic subunit gamma 2) gave: viability z-score, knock-down alone 0.464; viability vs control, knock-down alone 1.
With knock-down of NEK4 (NIMA related kinase 4), the record shows viability z-score, knock-down alone 0.231; viability vs control, knock-down alone 0.991.
After knock-down of CERT1 (ceramide transporter 1), the screen gave viability z-score, knock-down alone 0.464; viability vs control, knock-down alone 1.
Silencing of GRK2 (G protein-coupled receptor kinase 2) resulted in: viability z-score, knock-down alone 0.264; viability vs control, knock-down alone 0.992.
TSKS (testis specific serine kinase substrate) gave viability z-score, knock-down alone 0.464; viability vs control, knock-down alone 1.
With knock-down of SMC1A (structural maintenance of chromosomes 1A), the record shows viability z-score, knock-down alone 0.464; viability vs control, knock-down alone 1.
Silencing of EEF2K (eukaryotic elongation factor 2 kinase) resulted in: viability z-score, knock-down alone -2.77; viability vs control, knock-down alone 0.878.
Depletion of NUP98 (nucleoporin 98 and 96 precursor) resulted in: viability z-score, knock-down alone -0.82; viability vs control, knock-down alone 0.951.
Silencing of CSNK1G2 (casein kinase 1 gamma 2) came out at: viability z-score, knock-down alone 0.464; viability vs control, knock-down alone 1.
After knock-down of STRADB (STE20 related adaptor beta), the record shows viability z-score, knock-down alone 0.464; viability vs control, knock-down alone 1.
MAP4K1 (mitogen-activated protein kinase kinase kinase kinase 1) scored viability z-score, knock-down alone 0.239; viability vs control, knock-down alone 0.991.
Depletion of MERTK (MER proto-oncogene, tyrosine kinase) resulted in: viability z-score, knock-down alone -0.619; viability vs control, knock-down alone 0.959.
After knock-down of CDK17 (cyclin dependent kinase 17) the results were viability z-score, knock-down alone 0.464; viability vs control, knock-down alone 1.
CDK10 (cyclin dependent kinase 10) showed viability z-score, knock-down alone 0.414; viability vs control, knock-down alone 0.998.
With knock-down of MAP3K19 (mitogen-activated protein kinase kinase kinase 19), the record shows viability z-score, knock-down alone 0.263; viability vs control, knock-down alone 0.992.
DSTYK (dual serine/threonine and tyrosine protein kinase) showed viability z-score, knock-down alone 0.464; viability vs control, knock-down alone 1.

Only “viability z-score, knock-down alone”, for 3 of the entries above:
SMC1A (structural maintenance of chromosomes 1A): 0.464
EEF2K (eukaryotic elongation factor 2 kinase): -2.77
NUP98 (nucleoporin 98 and 96 precursor): -0.82
